Laboratory results as given in PubChem BioAssay AID602313 (National Center for Advancing Translational Sciences (NCATS), 2012).
In all, about 390,000 compounds went through this assay and about 760 (0.19%) were called active. This list was built around the results that the source calls inconclusive (neither active nor inactive); the mix of calls is not that of the screen. The call rests on the fitted dose curve; in most records, active means well fitted inhibition curve with a large enough effect; inconclusive means small, poorly fitted or top-dose-only effect; inactive means flat fitted curve, though single readings scatter. Potencies beside an inconclusive call are fits to weak or partial responses and may not hold up.

Experiment: qHTS for Inhibitors of Vif-A3F Interactions: qHTS; further: nearly all actives have a fitted effect of over 65% in size
Conditions: HeLa A3F-eYFP + Vif (tagged APOBEC3F with the HIV-1 protein that degrades it), YFP fluorescence increase; series mostly up to 46.1 µM
In short: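 HeLa cells stably expressing A3F-eYFP plus Vif, plated and incubated overnight at 37 deg C, then exposed to compounds overnight at 37 deg C. Blocked degradation read as raised yellow fluorescence (Ex 488/Em 500-530).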
Potency means the concentration at half of the fitted maximal effect.

Structure (SMILES)	Potency
Cc1ccc(-n2cccc2/C=C2/C(=N)N3C(=NC2=O)SN=C3S(C)(=O)=O)cc1Cl	inconclusive: 35.5 µM [inhibitor, single point]
N#Cc1cccc(NC(=O)COC(=O)C2CCC2)c1	inconclusive: 1.41 µM [inhibitor, partial curve, poor fit]
CCN(CC)CCNC(=O)c1ccc(NC(=O)c2ccc(Cl)c(S(=O)(=O)N3CCCCCC3)c2)cc1	inconclusive: 14.1 µM [inhibitor, single point]
COc1cccc(NC(=O)c2ccc3c(c2)N(CC(=O)N2CCOCC2)C(=O)C(C)(C)O3)c1	inconclusive: 6.31 µM [inhibitor, single point]
COc1cccc(C2C(C(=O)c3ccc(C)o3)=C(O)C(=O)N2c2cc(C)on2)c1 (stereo unspecified)	inactive
CCCCC1=NN(C(=O)c2ccco2)C(O)(C(F)(F)F)C1 (stereo unspecified)	inconclusive: 12.6 µM [inhibitor, partial curve, poor fit]
COc1ccccc1CNCC(O)(c1ccc(Cl)cc1)c1ccc(Cl)cc1	inconclusive: 35.5 µM [inhibitor, single point]
C#CCN1C(=O)S/C(=C/c2cc(C)n(CC)c2C)C1=O	inconclusive: 25.1 µM [inhibitor, single point]
O=C(O)Cc1sc(Nc2ccc(Cl)cc2)nc1-c1cccs1	inconclusive: 10 µM [inhibitor, partial curve, poor fit]
COc1ccccc1NC(=O)CSc1nc2c(sc3ccccc32)c(=O)n1CCN(C)C	inconclusive: 35.5 µM [inhibitor, single point]
COc1cc(/C=C2\SC(=O)N(CC(=O)Nc3cccc(C)c3)C2=O)cc([N+](=O)[O-])c1O	inconclusive: 5.62 µM [inhibitor, single point]
CCN(CC(=O)NCc1ccc(Cl)cc1)C(=O)/C=C/c1ccccc1	inconclusive: 3.16 µM [inhibitor, single point]
CC(=O)Oc1ccc2ccc3ccc(C(C)=O)cc3c2c1	inconclusive: 35.5 µM [inhibitor, single point]
O=C(CCNC(=O)Cn1ccc2ccccc2c1=O)NCCc1ccccc1Cl	inconclusive: 35.5 µM [inhibitor, single point]
O=c1c2ccsc2ncn1Cc1ccccc1F	inconclusive: 35.5 µM [inhibitor, single point]
CCCCCn1c(=O)[nH]c2cc(C(=O)Nc3cc(OC)cc(OC)c3)ccc2c1=O	active: 28.2 µM
CCOc1ccc(NC(=S)N=Nc2c(O)[nH]c3ccccc23)cc1	inconclusive: 0.562 µM [inhibitor, partial curve, poor fit]
Cc1ccc(-c2c[n+](CC(=O)Nc3c(C)cccc3C)c3n2CCC3)cc1	inactive
CCc1nnc(NS(=O)(=O)c2ccc(NS(=O)(=O)c3ccccc3[N+](=O)[O-])cc2)s1	inconclusive: 35.5 µM [inhibitor, single point]
S=c1sscc1-c1ccccc1	inactive
Cc1ccc(C)c(-n2c(-c3ccco3)n[nH]c2=S)c1	inconclusive: 35.5 µM [inhibitor, single point]

Structure (SMILES)	Potency
Fc1ccc(-c2nn(-c3ccccc3)cc2CNCc2ccccc2)cc1	inconclusive: 11.2 µM [inhibitor, partial curve, poor fit]
Cc1cc2c3c(c1C)C(=O)C(=O)N3C(C)(C)CC2C (stereo unspecified)	inactive
COCc1nnc(NC(=O)c2ccccc2Oc2ccccc2)s1	inactive
CCOc1ccc(Nc2nnc(SCc3nc4ccccc4c(=O)[nH]3)s2)cc1	inconclusive: 20 µM [inhibitor, single point]
Cc1ccc(C(=O)c2oc3nc(C)cc(C)c3c2N)cc1	inactive
CS(=O)(=O)Nc1nc2n(n1)C(c1ccccc1)C=C(c1ccc(Br)cc1)N2 (stereo unspecified)	inconclusive: 22.4 µM [inhibitor, single point]
Cc1nc(-c2nc(-c3c(C(=O)NNC(=O)Nc4cccc(Cl)c4)noc3C)cs2)cs1	inconclusive: 20 µM [inhibitor, partial curve, poor fit]
O=C(N/N=C/c1ccc([N+](=O)[O-])o1)c1cc2c(ccc3ccccc32)o1	active: 7.94 µM
Cc1ccc(C)c(-c2nnc(NC(=O)c3ccc([N+](=O)[O-])o3)o2)c1	inconclusive: 3.16 µM [inhibitor, partial curve, poor fit]
Cc1cccc(C(=O)OCc2cncs2)c1	inconclusive: 22.4 µM [inhibitor, partial curve, poor fit]
COc1ccc2oc(=O)c(-c3csc(/C(C#N)=C/c4ccc(F)cc4)n3)cc2c1	inconclusive: 1.58 µM [inhibitor, full curve, poor fit]
CCOC(=O)Cn1nnc2c(sc3nc4c(c(-c5ccc(Cl)cc5)c32)CCC4)c1=O	inconclusive: 15.8 µM [inhibitor, single point]
COC(=O)C1=C(C)NC2=C(C(=O)CC(C)(C)C2)C1c1ccsc1 (stereo unspecified)	inconclusive: 3.16 µM [inhibitor, single point]
O=C(Nc1nccs1)c1ccc(N2C(=O)[C@@H]3[C@H](C2=O)[C@H]2C=C[C@@H]3C2)cc1	inconclusive: 17.8 µM [inhibitor, single point]
COc1ccc2c(c1)CCc1c(C(=O)N3CCCc4ccccc43)noc1-2	inactive
Cc1ccnc(N/C=C(\C#N)c2nc(-c3cccc(Br)c3)cs2)c1	inconclusive: 17.8 µM [inhibitor, partial curve, poor fit]
COc1ccccc1NC(=S)NC1CCCCCCCCCCC1	inconclusive: 12.6 µM [inhibitor, partial curve, poor fit]
COCc1cc(C)nc(SCc2nc3ccccc3c(=O)[nH]2)c1C#N	inconclusive: 22.4 µM [inhibitor, partial curve, poor fit]
NC(=O)c1ccccc1NCC(=O)c1ccc(Cl)cc1	inconclusive: 35.5 µM [inhibitor, single point]
Cc1ccc(-c2[nH]ncc2/C=N/n2c(COc3ccccc3)nc3ccccc3c2=O)cc1	inactive

Rewritten as a markdown table: 3 of the compounds above.

| Structure (SMILES) | Potency |
| --- | --- |
| O=C(N/N=C/c1ccc([N+](=O)[O-])o1)c1cc2c(ccc3ccccc32)o1 | active: 7.94 µM |
| COc1ccc2oc(=O)c(-c3csc(/C(C#N)=C/c4ccc(F)cc4)n3)cc2c1 | inconclusive: 1.58 µM [inhibitor, full curve, poor fit] |
| COc1ccccc1NC(=S)NC1CCCCCCCCCCC1 | inconclusive: 12.6 µM [inhibitor, partial curve, poor fit] |
